In patent US20230129866A1 (PureTech LYT 100, Inc., priority 2020, published 2023):
For at least one compound, name, drawing or mass did not settle the structure. Some results were stated once for a whole list of compounds, not compound by compound.

How the values were obtained:
[1] = Single 801 mg dose, double-blinded, cross-over study of LYT-100 vs pirfenidone in healthy volunteers (PK and safety)
[2] = Phase 1 food effect study Part 2 (Cohort 5), single 500 mg dose fed vs fasted; type: in vivo, human; conditions: after LYT-100 500 mg single dose
Experimental: The comparison will be based on Day 1, Day 2 and Day 3 PK plasma samples after the first dose of study drug on Day 1 under fast and fed conditions of Part 2.
Subjects will be admitted to the CRU on Day-1 and will fast overnight for at least 10 h.

Structure (SMILES) | Abundance as percent of parent in terms of AUC [1] | Food effect on Cmax or AUC [2]
O=c1ccc(CO)cn1-c1ccccc1 [SD-788, 5-hydroxymethyl-pirfenidone] | less than 2% | 
O=C(O)c1ccc(=O)n(-c2ccccc2)c1 [LYT-105, 5-carboxy-pirfenidone] |  | no food effect
Cc1ccc(=O)n(-c2ccc(O)cc2)c1 [SD-1050, 4′-hydroxy-pirfenidone] | less than 2% | 
